The list is a part of this screen's results and no random one: it is rich in T/C values a quarter to a half above the control, in often repeated tests (any T/C) and in doses without a T/C. Further doses and runs are listed elsewhere. T/C: endpoint of the treated group in % of that of the vehicle group. Some doses have a count of surviving animals in place of a T/C: the source files T/C as zero there, which appears to mark a toxic dose or a test without result, not a measured value. Some doses without a T/C left all or most animals alive at the check, yet need not have been tolerated: the source hardly ever lists a survival T/C far under the control, and the zero likely stands for such cases as well. Counts of survivors are from the toxicity check (mostly the fifth day) where no day follows; animals may have died later. Schedule codes are those of the source, taken here to give the interval after Q, in days (D) or hours (H), and the number of doses after X. Some doses were run more than once; their values stand side by side, smallest first. Where survival is the endpoint, this PubChem deposit counts one and a half times the control or more as active, and values a quarter to a half above the control carry no call in these data; other NCI protocols may use other cut-offs. Some T/C values carry the count of animals alive at the toxicity check (mostly the fifth day); where none is given, no animal had died by that day. Counts like (3×) say how often a value occurs here.

The assay has as its system AKR/Lw mice, AKR lymphoma ip, median survival T/C. Description: NCI In Vivo Anticancer Drug Screen. Data for tumor model Lymphoma AKR (Transplanted) (intraperitoneal) in AKR/Lw mice. The settings on record: T/C endpoint: median survival time, higher T/C = longer survival. The procedure:
The antitumor activity of compounds was measured in mice bearing transplantable tumors. Survival or tumor size were measured and the results are expressed as the measurement made in the treated group (T) divided by the measurement made in the vehicle treated control group (C). The tumor model used in this assay is Lymphoma AKR (Transplanted) (intraperitoneal) in AKR/Lw mice

[1] abbreviates: dose: 50.0 mg/kg/injection, schedule: Q01DX009 (ip), vehicle: saline.
[2] abbreviates: dose: 50.0 mg/kg/injection, schedule: Q04DX003 (ip), vehicle: saline.
Setting [3] is: dose: 100.0 mg/kg/injection, schedule: Q01DX009 (ip), vehicle: saline.
Setting [4] is: dose: 200.0 mg/kg/injection, schedule: Q04DX003 (ip), vehicle: other.
Setting [5] is: dose: 400.0 mg/kg/injection, schedule: Q04DX003 (ip), vehicle: saline.
Where [6] appears, read: dose: 25.0 mg/kg/injection, schedule: Q01DX009 (ip), vehicle: saline.
[7] abbreviates: dose: 400.0 mg/kg/injection, schedule: Q01DX001 (ip), vehicle: saline.
[8] abbreviates: dose: 100.0 mg/kg/injection, schedule: Q01DX001 (ip), vehicle: Klucel (hydroxypropylcellulose) (HPC).

On to `Nc1nc(=S)c2ncn(C3CC(O)C(CO)O3)c2[nH]1` (stereo unspecified), for which the T/C is 97 % of control (dose: 25.0 mg/kg/injection, schedule: Q01DX009 (ip), vehicle: saline, evaluated on day 45); 87, 92, 100 % of control (dose: 25.0 mg/kg/injection, schedule: Q01DX009 (ip), vehicle: saline, evaluated on day 60); 107 % of control (dose: 50.0 mg/kg/injection, schedule: Q01DX009 (ip), vehicle: saline, evaluated on day 45); 103 and 116 % of control (dose: 50.0 mg/kg/injection, schedule: Q01DX009 (ip), vehicle: saline, evaluated on day 60); 107 % of control (dose: 100.0 mg/kg/injection, schedule: Q01DX009 (ip), vehicle: saline, evaluated on day 45); 101, 104 [9 of 10 alive], 111 % of control [9 of 10 alive] (dose: 100.0 mg/kg/injection, schedule: Q01DX009 (ip), vehicle: saline, evaluated on day 60). Further, the T/C by setting is: (dose: 100.0 mg/kg/injection, schedule: Q04DX003 (ip), vehicle: saline, evaluated on day 45) 110 % of control; (dose: 100.0 mg/kg/injection, schedule: Q04DX003 (ip), vehicle: saline, evaluated on day 60) 87, 114, 122 % of control; under setting [4], 130 % of control; (dose: 400.0 mg/kg/injection, schedule: Q01DX001 (ip), vehicle: saline, evaluated on day 45) 105 % of control; (dose: 400.0 mg/kg/injection, schedule: Q01DX001 (ip), vehicle: saline, evaluated on day 60) 92, 100 [8 of 10 alive], 110 % of control; under setting [5], 136 % of control. In addition, the survivor count runs as follows: under setting [1], 10 of 10; under setting [2], 7 of 10; under setting [3], 10 of 10; under setting [4], 9 of 10; (dose: 400.0 mg/kg/injection, schedule: Q01DX009 (ip), vehicle: saline) 10 of 10; (dose: 400.0 mg/kg/injection, schedule: Q04DX003 (ip), vehicle: other) 8 of 10.
As to `O=C[C@@H](CO)O[C@H](C=O)n1cnc2c(=O)[nH]cnc21`, the survivor count runs as follows: (dose: 6.2 mg/kg/injection, schedule: Q01DX009 (ip), vehicle: saline) 10 of 10; (dose: 12.0 mg/kg/injection, schedule: Q01DX009 (ip), vehicle: saline) 10 of 10; (dose: 12.5 mg/kg/injection, schedule: Q01DX009 (ip), vehicle: saline) 10 of 10; (dose: 25.0 mg/kg/injection, schedule: Q01DX005 (ip), vehicle: saline) 7 of 10; under setting [6], 9 of 10; (dose: 50.0 mg/kg/injection, schedule: Q01DX005 (ip), vehicle: saline) 8 of 10. Also, the survivor count runs as follows: under setting [1], 10 of 10; under setting [2], 10 of 10; (dose: 100.0 mg/kg/injection, schedule: Q01DX005 (ip), vehicle: saline) 8 of 10; under setting [3], 10 of 10; (dose: 200.0 mg/kg/injection, schedule: Q01DX005 (ip), vehicle: saline) 7 of 10; (dose: 200.0 mg/kg/injection, schedule: Q01DX009 (ip), vehicle: saline) 9 of 10. Further, the survivor count was 2 of 10 (dose: 400.0 mg/kg/injection, schedule: Q01DX005 (ip), vehicle: saline); 2 of 10, 7 of 10, 10 of 10 under setting [5]; 4 of 10 (dose: 480.0 mg/kg/injection, schedule: Q04DX003 (ip), vehicle: water); 10 of 10 (dose: 500.0 mg/kg/injection, schedule: Q04DX003 (ip), vehicle: saline); 0 of 10, 1 of 10, 2 of 10 (dose: 800.0 mg/kg/injection, schedule: Q01DX001 (ip), vehicle: saline). Further, the T/C reads like this: under setting [6], 88 [9 of 10 alive], 108, 117, 121, 122, 144, 154, 213 % of control; (dose: 25.0 mg/kg/injection, schedule: Q04DX003 (ip), vehicle: saline) 125 % of control; under setting [1], 87, 100 [8 of 10 alive], 105, 128, 134 [9 of 10 alive], 177 % of control; under setting [2], 96, 109, 111 % of control; under setting [3], 87, 94 [9 of 10 alive], 103 [9 of 10 alive], 133, 139 [9 of 10 alive], 169 % of control; (dose: 100.0 mg/kg/injection, schedule: Q04DX003 (ip), vehicle: saline) 92, 92 [8 of 10 alive], 107, 162 % of control. The T/C is, setting by setting: (dose: 120.0 mg/kg/injection, schedule: Q04DX003 (ip), vehicle: water) 127 % of control; (dose: 200.0 mg/kg/injection, schedule: Q01DX001 (ip), vehicle: saline) 94, 106 (2×), 113 % of control; (dose: 200.0 mg/kg/injection, schedule: Q04DX003 (ip), vehicle: saline) 94 [9 of 10 alive], 100, 102, 148 [9 of 10 alive], 185, 205 % of control; (dose: 300.0 mg/kg/injection, schedule: Q04DX003 (ip), vehicle: saline) 93, 145, 156, 188 % of control; under setting [7], 96 [7 of 10 alive], 102 [9 of 10 alive], 118, 127 % of control [8 of 10 alive]; under setting [5], 87 [9 of 10 alive], 122, 174 % of control.
Turning to `C/C=C(/Cl)c1c(C)cc(C)c(CC(=O)O)c1C`, under setting [8], the survivor count was 8 of 10.
As to `CO[C@H]1/C=C/O[C@@]2(C)Oc3c(C)c(O)c4c(O)c(c(/C=N/N5C(C)CN(Cc6ccccc6)CC5C)c(O)c4c3C2=O)NC(=O)/C(C)=C\C=C\[C@H](C)[C@H](O)[C@@H](C)[C@@H](O)[C@@H](C)[C@H](OC(C)=O)[C@@H]1C` (stereo partly specified), the survivor count runs as follows: (dose: 12.5 mg/kg/injection, schedule: Q01DX009 (ip), vehicle: other) 7 of 10; (dose: 25.0 mg/kg/injection, schedule: Q01DX009 (ip), vehicle: other) 6 of 10; (dose: 50.0 mg/kg/injection, schedule: Q01DX009 (ip), vehicle: other) 7 of 10; (dose: 100.0 mg/kg/injection, schedule: Q01DX009 (ip), vehicle: other) 7 of 10; (dose: 200.0 mg/kg/injection, schedule: Q01DX009 (ip), vehicle: other) 0 of 10; (dose: 400.0 mg/kg/injection, schedule: Q01DX009 (ip), vehicle: other) 0 of 10.
Turning to `COc1ccc(S(=O)O)cc1NC(C)=O`, under setting [7], the survivor count is 9 of 10.
On to `CC1NC1(c1ccccc1)[n+]1ccccc1` (stereo unspecified), for which the survivor count is on record as 10 of 10 (dose: 100.0 mg/kg/injection, schedule: Q01DX001 (ip), vehicle: saline) and 2 of 10 under setting [7].
As for `CC(C)OC(=O)Oc1cccc2c1C(=O)c1ccccc1C2=O`, under “dose: 400.0 mg/kg/injection, schedule: Q01DX001 (ip), vehicle: Klucel (hydroxypropylcellulose) (HPC)”, the T/C is 128 % of control.
As for `CCn1c(O)c(C=N)c(=O)[nH]c1=O`, the survivor count (dose: 100.0 mg/kg/injection, schedule: Q04DX003 (ip), vehicle: Klucel (hydroxypropylcellulose) (HPC)) is reported as 10 of 10.
In the case of `CC(=O)c1ccc2ccccc2c1O`, the survivor count under setting [8] is 10 of 10. For the same compound, under “dose: 100.0 mg/kg/injection, schedule: Q01DX001 (ip), vehicle: other”, the T/C is 125 % of control.

For the origin of these results see PubChem BioAssay AID190 (DTP/NCI, 2004).
